Measured values from PMC8291974.
Results are given in words; binding and its absence hold for the method and conditions named. Binding seen in cells or lysates may run through a third protein. Some entries that bind do so weakly or less than the wild type. Where a sequence is shown, tags or fusion partners need not be part of it.

Sequences of proteins named here, by UniProt entry; tags and fusion partners are left off.
UniProt E9Q777: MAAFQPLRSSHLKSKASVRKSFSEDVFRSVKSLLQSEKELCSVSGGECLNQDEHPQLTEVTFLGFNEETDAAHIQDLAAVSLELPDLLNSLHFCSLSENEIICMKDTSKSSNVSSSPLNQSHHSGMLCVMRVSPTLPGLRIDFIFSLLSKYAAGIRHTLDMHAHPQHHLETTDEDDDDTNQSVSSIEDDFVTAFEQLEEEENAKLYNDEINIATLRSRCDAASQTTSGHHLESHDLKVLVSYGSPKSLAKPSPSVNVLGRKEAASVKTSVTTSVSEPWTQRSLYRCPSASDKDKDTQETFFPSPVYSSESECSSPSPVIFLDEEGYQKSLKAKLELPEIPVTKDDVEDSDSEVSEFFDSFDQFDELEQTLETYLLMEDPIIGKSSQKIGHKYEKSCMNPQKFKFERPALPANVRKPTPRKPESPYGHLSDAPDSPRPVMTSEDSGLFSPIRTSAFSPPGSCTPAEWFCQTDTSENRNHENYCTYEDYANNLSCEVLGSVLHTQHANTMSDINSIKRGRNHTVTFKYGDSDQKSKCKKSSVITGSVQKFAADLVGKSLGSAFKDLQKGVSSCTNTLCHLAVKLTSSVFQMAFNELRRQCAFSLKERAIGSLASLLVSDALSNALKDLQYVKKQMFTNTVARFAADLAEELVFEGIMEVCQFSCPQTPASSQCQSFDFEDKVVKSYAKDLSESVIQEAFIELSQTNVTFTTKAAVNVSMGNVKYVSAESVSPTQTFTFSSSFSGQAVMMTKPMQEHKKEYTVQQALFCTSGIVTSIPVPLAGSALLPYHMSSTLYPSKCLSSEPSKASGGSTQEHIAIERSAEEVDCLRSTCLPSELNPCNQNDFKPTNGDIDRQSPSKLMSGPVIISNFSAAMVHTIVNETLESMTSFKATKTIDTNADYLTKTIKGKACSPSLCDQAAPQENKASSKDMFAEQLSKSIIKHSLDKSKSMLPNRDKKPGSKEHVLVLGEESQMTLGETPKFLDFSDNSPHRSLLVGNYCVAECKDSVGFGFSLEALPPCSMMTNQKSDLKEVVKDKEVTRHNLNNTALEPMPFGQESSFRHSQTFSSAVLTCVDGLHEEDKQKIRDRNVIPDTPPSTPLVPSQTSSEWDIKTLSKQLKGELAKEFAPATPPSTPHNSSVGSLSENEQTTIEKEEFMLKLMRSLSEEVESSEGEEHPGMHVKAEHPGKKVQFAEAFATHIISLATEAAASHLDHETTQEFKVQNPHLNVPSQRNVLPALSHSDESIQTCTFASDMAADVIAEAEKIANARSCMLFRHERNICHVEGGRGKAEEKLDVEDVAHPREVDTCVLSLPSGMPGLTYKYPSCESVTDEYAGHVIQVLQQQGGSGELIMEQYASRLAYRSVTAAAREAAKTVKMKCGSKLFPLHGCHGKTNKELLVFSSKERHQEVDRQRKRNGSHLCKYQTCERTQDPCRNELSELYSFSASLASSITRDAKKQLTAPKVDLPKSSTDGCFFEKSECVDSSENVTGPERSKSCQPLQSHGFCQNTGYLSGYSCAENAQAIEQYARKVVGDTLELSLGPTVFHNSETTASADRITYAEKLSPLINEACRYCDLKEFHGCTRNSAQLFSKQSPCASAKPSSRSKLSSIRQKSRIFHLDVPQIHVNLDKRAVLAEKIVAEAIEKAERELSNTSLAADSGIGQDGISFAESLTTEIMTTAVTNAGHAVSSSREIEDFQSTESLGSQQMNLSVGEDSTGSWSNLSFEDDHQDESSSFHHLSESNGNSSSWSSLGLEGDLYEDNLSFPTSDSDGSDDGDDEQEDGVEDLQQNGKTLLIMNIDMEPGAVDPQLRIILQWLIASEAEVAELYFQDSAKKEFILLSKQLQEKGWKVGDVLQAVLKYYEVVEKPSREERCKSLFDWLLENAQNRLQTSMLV

Target: T1, histone deacetylase 6 (HDAC6), endogenous in mIMCD3 cells (mouse (endogenous in mIMCD3)) (UniProt Q9Z2V5)
T1 sequence: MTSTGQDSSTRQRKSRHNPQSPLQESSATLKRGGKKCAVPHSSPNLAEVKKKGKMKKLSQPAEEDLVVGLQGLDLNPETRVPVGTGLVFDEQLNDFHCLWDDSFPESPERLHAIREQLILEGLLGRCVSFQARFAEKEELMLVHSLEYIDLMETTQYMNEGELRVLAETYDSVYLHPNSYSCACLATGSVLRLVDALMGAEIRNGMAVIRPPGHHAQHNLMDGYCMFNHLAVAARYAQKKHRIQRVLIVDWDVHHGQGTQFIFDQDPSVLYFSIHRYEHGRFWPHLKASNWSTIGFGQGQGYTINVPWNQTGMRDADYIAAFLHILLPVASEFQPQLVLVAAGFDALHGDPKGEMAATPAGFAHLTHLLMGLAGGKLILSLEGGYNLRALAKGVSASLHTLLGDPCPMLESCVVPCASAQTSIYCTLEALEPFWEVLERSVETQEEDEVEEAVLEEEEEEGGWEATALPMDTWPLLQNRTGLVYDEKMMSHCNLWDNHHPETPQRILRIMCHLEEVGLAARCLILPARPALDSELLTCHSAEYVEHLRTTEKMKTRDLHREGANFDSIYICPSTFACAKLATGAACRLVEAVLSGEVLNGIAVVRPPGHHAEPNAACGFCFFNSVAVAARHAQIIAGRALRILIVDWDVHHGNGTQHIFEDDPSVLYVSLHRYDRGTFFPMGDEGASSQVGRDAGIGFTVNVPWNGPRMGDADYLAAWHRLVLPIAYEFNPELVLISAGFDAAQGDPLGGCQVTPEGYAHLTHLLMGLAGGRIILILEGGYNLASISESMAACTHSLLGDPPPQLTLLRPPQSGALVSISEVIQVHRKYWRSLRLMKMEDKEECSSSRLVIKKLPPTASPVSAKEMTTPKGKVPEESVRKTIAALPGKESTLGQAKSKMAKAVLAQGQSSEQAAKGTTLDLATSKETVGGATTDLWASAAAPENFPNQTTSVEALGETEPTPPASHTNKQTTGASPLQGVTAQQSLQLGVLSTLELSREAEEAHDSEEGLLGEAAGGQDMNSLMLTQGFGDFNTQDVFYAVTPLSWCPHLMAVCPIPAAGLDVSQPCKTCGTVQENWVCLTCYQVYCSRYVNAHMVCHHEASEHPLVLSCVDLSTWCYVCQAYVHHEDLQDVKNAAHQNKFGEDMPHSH
Assay: co-IP; immunoprecipitation of HDAC6 from wild-type or AKAP220-ΔPP1 mIMCD3 cell lysates, immunoblot for AKAP220

A-Kinase anchoring protein AKAP220 (wild type, endogenous in mIMCD3 cells) (from UniProt E9Q777 1-1894)
binding: binds
